Earlier results in patent US11844767B2, “Composition and methods for stimulating clearance of amyloid-beta protein” (Rush University Medical Center, priority 2016, dated 2023).
For at least one compound, name, drawing or mass did not settle the structure.

System: LDLR
Details: PPARα dependent mechanism; cited from earlier work

For `CC(C)OC(=O)C(C)(C)Oc1ccc(C(=O)c2ccc(Cl)cc2)cc1` [fenofibrate], the “hepatic expression of LDLR” value is given as “induced”.
